Reference: article PMC7579719
Results are given in words; binding and its absence hold for the method and conditions named. Binding seen in cells or lysates may run through a third protein. Some results given as binding are weak or reduced against the parent protein; the word gives no strength.

Sequences of proteins named here, by UniProt entry; tags and fusion partners are left off. A change or cut given only in a name is not applied to a line headed by its entry. A line that says so, or that is headed by a name, gives the form on record, which may keep a tag or linker.
UniProt P10275: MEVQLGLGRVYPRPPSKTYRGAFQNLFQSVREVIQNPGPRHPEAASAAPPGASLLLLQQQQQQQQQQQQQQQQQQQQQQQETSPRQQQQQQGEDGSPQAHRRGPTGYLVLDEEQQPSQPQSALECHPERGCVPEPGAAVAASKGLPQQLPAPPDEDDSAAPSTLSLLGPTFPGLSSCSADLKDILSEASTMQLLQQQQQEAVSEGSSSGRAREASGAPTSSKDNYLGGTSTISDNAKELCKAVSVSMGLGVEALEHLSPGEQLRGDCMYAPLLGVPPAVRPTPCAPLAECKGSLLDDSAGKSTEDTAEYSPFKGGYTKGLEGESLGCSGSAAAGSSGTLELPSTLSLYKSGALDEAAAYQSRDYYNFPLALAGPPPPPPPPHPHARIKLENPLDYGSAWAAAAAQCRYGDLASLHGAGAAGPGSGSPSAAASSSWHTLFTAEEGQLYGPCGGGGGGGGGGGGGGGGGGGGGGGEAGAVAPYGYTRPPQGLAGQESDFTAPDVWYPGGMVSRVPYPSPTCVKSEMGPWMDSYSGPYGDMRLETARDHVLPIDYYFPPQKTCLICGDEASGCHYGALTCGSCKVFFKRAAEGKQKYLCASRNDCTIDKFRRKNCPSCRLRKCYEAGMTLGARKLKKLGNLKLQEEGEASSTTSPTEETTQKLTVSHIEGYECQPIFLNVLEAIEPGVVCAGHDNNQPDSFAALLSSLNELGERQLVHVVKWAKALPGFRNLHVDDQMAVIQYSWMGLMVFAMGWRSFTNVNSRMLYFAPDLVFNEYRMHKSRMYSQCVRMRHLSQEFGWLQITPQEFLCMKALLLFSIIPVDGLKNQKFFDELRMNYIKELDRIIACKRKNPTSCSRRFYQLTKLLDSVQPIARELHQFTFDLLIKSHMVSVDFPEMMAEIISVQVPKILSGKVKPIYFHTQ
Androgen receptor splice variant-7 (AR-V7), endogenous (P10275-3, form named): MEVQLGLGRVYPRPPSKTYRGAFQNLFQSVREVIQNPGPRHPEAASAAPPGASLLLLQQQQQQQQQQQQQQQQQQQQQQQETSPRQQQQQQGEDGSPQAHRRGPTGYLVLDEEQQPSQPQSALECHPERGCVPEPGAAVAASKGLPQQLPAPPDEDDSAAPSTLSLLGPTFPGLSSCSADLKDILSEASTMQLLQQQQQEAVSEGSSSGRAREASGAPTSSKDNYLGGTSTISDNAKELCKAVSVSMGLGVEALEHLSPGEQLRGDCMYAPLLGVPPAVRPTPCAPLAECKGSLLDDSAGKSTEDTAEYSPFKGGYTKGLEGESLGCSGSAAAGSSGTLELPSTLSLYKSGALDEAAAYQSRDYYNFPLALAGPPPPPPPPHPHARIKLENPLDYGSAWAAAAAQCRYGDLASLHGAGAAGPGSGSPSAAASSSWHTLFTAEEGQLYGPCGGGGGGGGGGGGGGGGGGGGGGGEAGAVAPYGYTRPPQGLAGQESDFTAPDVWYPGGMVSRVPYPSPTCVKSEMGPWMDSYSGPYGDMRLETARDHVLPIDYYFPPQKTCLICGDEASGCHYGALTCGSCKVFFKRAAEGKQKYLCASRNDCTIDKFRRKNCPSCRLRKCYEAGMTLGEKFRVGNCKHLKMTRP

Legend:
[1] = biological target: T1, Aldo-keto reductase 1C3 (AKR1C3) (human (endogenous in VCaP, 22RV1, 22RV1 T and HEK293)) (UniProt P42330); test: co-IP; lysates of subcutaneous 22RV1 T xenografts (castrated nude mice) immunoprecipitated with AKR1C3 antibody on protein G beads; bound proteins analysed by Western blot
T1 sequence: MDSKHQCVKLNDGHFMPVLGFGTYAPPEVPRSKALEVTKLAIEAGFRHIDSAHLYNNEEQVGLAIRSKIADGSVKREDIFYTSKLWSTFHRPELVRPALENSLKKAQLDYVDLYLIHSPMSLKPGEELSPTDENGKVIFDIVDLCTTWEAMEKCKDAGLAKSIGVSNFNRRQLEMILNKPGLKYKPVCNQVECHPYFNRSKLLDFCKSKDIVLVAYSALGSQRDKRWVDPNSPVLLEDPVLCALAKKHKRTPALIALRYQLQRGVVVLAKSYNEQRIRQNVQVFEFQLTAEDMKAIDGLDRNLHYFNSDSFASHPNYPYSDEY

[2] = biological target: T1, Aldo-keto reductase 1C3 (AKR1C3) (human (endogenous in VCaP, 22RV1, 22RV1 T and HEK293)); test: co-IP; cell lysates of VCaP, 22RV1 (22RV1 T in the methods) and GFP-AR-V7 transfected HEK293 immunoprecipitated with AKR1C3 antibody on Dynabeads Protein G; bound proteins analysed by Western blot

| Substance | binding [1] | binding [2] |
| --- | --- | --- |
| Full-length androgen receptor (AR-FL), endogenous (from UniProt P10275 1-920) | binds |  |
| GFP-AR-V7 fusion protein (from UniProt P10275-3 1-644) |  | binds |
| Androgen receptor splice variant-7 (AR-V7), endogenous (from UniProt P10275-3 1-644) | binds | binds |
